These are yes or no findings as the source states them, for the method shown. Some binding calls cover weakened binding; strength is not graded here.

B1: stefin A protein variant clone 317 (designed binder)
chain: MIPGGLSEAKPATPEIQEIVDKVKPQLEEKTGETYGKLEAVQYKTQVVWVSQQHYSHGTNYYIKVRAGDNKYMHLKVFKSLFAFRKYEDREDLVLTGYQVDKNKDDELTGF
B2: stefin A protein variant clone 315 (designed binder)
chain: MIPGGLSEAKPATPEIQEIVDKVKPQLEEKTGETYGKLEAVQYKTQVVIGYKLNYIWGTNYYIKVRAGDNKYMHLKVFKSLIQYRWQDRVEDLVLTGYQVDKNKDDELTGF
B3: stefin A protein variant clone 304 (designed binder)
chain: MIPGGLSEAKPATPEIQEIVDKVKPQLEEKTGETYGKLEAVQYKTQVVAWITPVNVLGTNYYIKVRAGDNKYMHLKVFKSLDEIFHGAYNEDLVLTGYQVDKNKDDELTGF
B4: stefin A protein variant clone 299 (designed binder)
chain: MIPGGLSEAKPATPEIQEIVDKVKPQLEEKTGETYGKLEAVQYKTQVVLVFDASTSAGTNYYIKVRAGDNKYMHLKVFKSLPWEFRGDHKEDLVLTGYQVDKNKDDELTGF
B5: stefin A protein variant clone 316 (designed binder)
chain: MIPGGLSEAKPATPEIQEIVDKVKPQLEEKTGETYGKLEAVQYKTQVVVSLTEQRWKGTNYYIKVRAGDNKYMHLKVFKSLFQPIKLANAEDLVLTGYQVDKNKDDELTGF
B6: stefin A protein variant clone 318 (designed binder)
chain: MIPGGLSEAKPATPEIQEIVDKVKPQLEEKTGETYGKLEAVQYKTQVVDDDNQHYGLGTNYYIKVRAGDNKYMHLKVFKSLLHNWWKGNWEDLVLTGYQVDKNKDDELTGF
B7: stefin A protein variant clone 309 (designed binder)
chain: MIPGGLSEAKPATPEIQEIVDKVKPQLEEKTGETYGKLEAVQYKTQVVAFHKLGWILGTNYYIKVRAGDNKYMHLKVFKSLGDESHKWHKEDLVLTGYQVDKNKDDELTGF
B8: stefin A protein variant clone 300 (designed binder)
chain: MIPGGLSEAKPATPEIQEIVDKVKPQLEEKTGETYGKLEAVQYKTQVVQYAEFLEHIGTNYYIKVRAGDNKYMHLKVFKSLGWSHYFQYLEDLVLTGYQVDKNKDDELTGF
B9: stefin A protein variant clone 302 (designed binder)
chain: MIPGGLSEAKPATPEIQEIVDKVKPQLEEKTGETYGKLEAVQYKTQVVGWSASYPESGTNYYIKVRAGDNKYMHLKVFKSLTQWEFIEWPEDLVLTGYQVDKNKDDELTGF
B10: stefin A protein variant clone 301 (designed binder)
chain: MIPGGLSEAKPATPEIQEIVDKVKPQLEEKTGETYGKLEAVQYKTQVVGNVQEDWHIGTNYYIKVRAGDNKYMHLKVFKSLFSEDLTLNGEDLVLTGYQVDKNKDDELTGF
B11: stefin A protein variant clone 305 (designed binder)
chain: MIPGGLSEAKPATPEIQEIVDKVKPQLEEKTGETYGKLEAVQYKTQVVESYAAIFWGGTNYYIKVRAGDNKYMHLKVFKSLWGEIQHWRQEDLVLTGYQVDKNKDDELTGF
B12: stefin A protein variant clone 297 (designed binder)
chain: MIPGGLSEAKPATPEIQEIVDKVKPQLEEKTGETYGKLEAVQYKTQVVWHKIVTQWPGTNYYIKVRAGDNKYMHLKVFKSLYAQRGEVYFEDLVLTGYQVDKNKDDELTGF
B13: stefin A protein variant clone 324 (designed binder)
chain: MIPGGLSEAKPATPEIQEIVDKVKPQLEEKTGETYGKLEAVQYKTQVVHEKWGFWELGTNYYIKVRAGDNKYMHLKVFKSLHSHRFHEAHEDLVLTGYQVDKNKDDELTGF
B14: stefin A protein variant clone 313 (designed binder)
chain: MIPGGLSEAKPATPEIQEIVDKVKPQLEEKTGETYGKLEAVQYKTQVVGQYWFWAPGGTNYYIKVRAGDNKYMHLKVFKSLPSSGGGPKWEDLVLTGYQVDKNKDDELTGF
B15: stefin A protein variant clone 321 (designed binder)
chain: MIPGGLSEAKPATPEIQEIVDKVKPQLEEKTGETYGKLEAVQYKTQVVHYTDFKWHKGTNYYIKVRAGDNKYMHLKVFKSLPFWANEHGWEDLVLTGYQVDKNKDDELTGF
B16: stefin A protein variant clone 328 (designed binder)
chain: MIPGGLSEAKPATPEIQEIVDKVKPQLEEKTGETYGKLEAVQYKTQVVVYKIITFWSGTNYYIKVRAGDNKYMHLKVFKSLEYPPVQQVLEDLVLTGYQVDKNKDDELTGF
B17: stefin A protein variant clone 298 (designed binder)
chain: MIPGGLSEAKPATPEIQEIVDKVKPQLEEKTGETYGKLEAVQYKTQVVHYRIITHWEGTNYYIKVRAGDNKYMHLKVFKSLVRAFLYYKDEDLVLTGYQVDKNKDDELTGF
B18: stefin A protein variant clone 312 (designed binder)
chain: MIPGGLSEAKPATPEIQEIVDKVKPQLEEKTGETYGKLEAVQYKTQVVQRETHILWSGTNYYIKVRAGDNKYMHLKVFKSLWFDNLHNNFEDLVLTGYQVDKNKDDELTGF
B19: stefin A protein variant clone 307 (designed binder)
chain: MIPGGLSEAKPATPEIQEIVDKVKPQLEEKTGETYGKLEAVQYKTQVVQVKKWWEYFVTNYYIKVRAGDNKYMHLKVFKSLQLLSHQWTEEDLVLTGYQVDKNKDDELTGF
B20: stefin A protein variant clone 296 (designed binder)
chain: MIPGGLSEAKPATPEIQEIVDKVKPQLEEKTGETYGKLEAVQYKTQVVNENVYRVTQGTNYYIKVRAGDNKYMHLKVFKSLKYRHRLTYEEDLVLTGYQVDKNKDDELTGF
B21: stefin A protein variant clone 326 (designed binder)
chain: MIPGGLSEAKPATPEIQEIVDKVKPQLEEKTGETYGKLEAVQYKTQVVYYKVISWWHGTNYYIKVRAGDNKYMHLKVFKSLYKTPFPQYTEDLVLTGYQVDKNKDDELTGF
B22: stefin A protein variant clone 310 (designed binder)
chain: MIPGGLSEAKPATPEIQEIVDKVKPQLEEKTGETYGKLEAVQYKTQVVFKKWWWKYKGTNYYIKVRAGDNKYMHLKVFKSLRVDEHYIQFEDLVLTGYQVDKNKDDELTGF
B23: stefin A protein variant clone 327 (designed binder)
chain: MIPGGLSEAKPATPEIQEIVDKVKPQLEEKTGETYGKLEAVQYKTQVVHWHHYDNIIGTNYYIKVRAGDNKYMHLKVFKSLYQLVDLDLDEDLVLTGYQVDKNKDDELTGF
B24: stefin A protein variant clone 320 (designed binder)
chain: MIPGGLSEAKPATPEIQEIVDKVKPQLEEKTGETYGKLEAVQYKTQVVTAFAPNKASGTNYYIKVRAGDNKYMHLKVFKSLRYWAFRYLWEDLVLTGYQVDKNKDDELTGF
B25: stefin A protein variant clone 306 (designed binder)
chain: MIPGGLSEAKPATPEIQEIVDKVKPQLEEKTGETYGKLEAVQYKTQVVRVWPWTWDRGTNYYIKVRAGDNKYMHLKVFKSLEQWLPNPYFEDLVLTGYQVDKNKDDELTGF
B26: stefin A protein variant clone 308 (designed binder)
chain: MIPGGLSEAKPATPEIQEIVDKVKPQLEEKTGETYGKLEAVQYKTQVVIGQISEQQWGTNYYIKVRAGDNKYMHLKVFKSLHRYWTRDVTEDLVLTGYQVDKNKDDELTGF
B27: stefin A protein variant clone 303 (designed binder)
chain: MIPGGLSEAKPATPEIQEIVDKVKPQLEEKTGETYGKLEAVQYKTQVVYQFEHISYGGTNYYIKVRAGDNKYMHLKVFKSLFTYRLPQHREDLVLTGYQVDKNKDDELTGF
B28: stefin A protein variant clone 323 (designed binder)
chain: MIPGGLSEAKPATPEIQEIVDKVKPQLEEKTGETYGKLEAVQYKTQVVELDEPAWDWGTNYYIKVRAGDNKYMHLKVFKSLRQHKKPHPNEDLVLTGYQVDKNKDDELTGF
B29: stefin A protein variant clone 319 (designed binder)
chain: MIPGGLSEAKPATPEIQEIVDKVKPQLEEKTGETYGKLEAVQYKTQVVPTRWISIYWGTNYYIKVRAGDNKYMHLKVFKSLLNRYYHASIEDLVLTGYQVDKNKDDELTGF
B30: stefin A protein variant clone 325 (designed binder)
chain: MIPGGLSEAKPATPEIQEIVDKVKPQLEEKTGETYGKLEAVQYKTQVVVATADLIKAGTNYYIKVRAGDNKYMHLKVFKSLPWHYPPNKWEDLVLTGYQVDKNKDDELTGF
B31: stefin A protein variant clone 322 (designed binder)
chain: MIPGGLSEAKPATPEIQEIVDKVKPQLEEKTGETYGKLEAVQYKTQVVNKFWSWAPGGTNYYIKVRAGDNKYMHLKVFKSLADSGFNATPEDLVLTGYQVDKNKDDELTGF
B32: stefin A protein variant clone 311 (designed binder)
chain: MIPGGLSEAKPATPEIQEIVDKVKPQLEEKTGETYGKLEAVQYKTQVVASQRLWIIYGTNYYIKVRAGDNKYMHLKVFKSLSDWRHHGGWEDLVLTGYQVDKNKDDELTGF
B33: stefin A protein variant clone 314 (designed binder)
chain: MIPGGLSEAKPATPEIQEIVDKVKPQLEEKTGETYGKLEAVQYKTQVVRDWAYYIYFGTNYYIKVRAGDNKYMHLKVFKSLRSDTLHYWNEDLVLTGYQVDKNKDDELTGF

This experiment addresses T1, human CD40L (human, UniProt P29965 113-261, limits assumed).
T1 sequence (looked up): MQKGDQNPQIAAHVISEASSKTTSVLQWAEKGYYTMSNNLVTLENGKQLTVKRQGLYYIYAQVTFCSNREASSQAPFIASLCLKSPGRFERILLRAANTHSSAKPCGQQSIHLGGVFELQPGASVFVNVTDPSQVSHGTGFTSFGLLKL
Put plainly: ELISA, bacterial lysate on plate-bound human CD40L, anti-Myc tag detection. For orientation: ELISA stands for enzyme-linked immunosorbent assay.
For the molecule B1, the binding entry is recorded as “binds”.
Regarding B2, the binding entry is recorded as “binds”.
Turning to B3, the binding result is listed as “binds”.
With B4, the binding result is given as “binds”.
B5: the binding result was “binds”.
Then B6, with “binds”; and B7, with “binds”; and B8, with “binds”.
Consider B9, for which the binding result is “binds”.
Then B10, with “binds”.
As to B11, the binding result is “binds”.
With B12, the binding entry is given as “binds”.
B13: the binding entry was “binds”.
Turning to B14, the binding entry is “binds”.
Consider B15, for which the binding entry is recorded as “binds”.
For B16, the binding entry is given as “binds”.
In the case of B17, the binding entry is on record as “binds”.
On to B18, for which the binding result is “binds”.
B19: the binding result was “binds”.
Consider B20, for which the binding result is given as “binds”.
B21: the binding entry is on record as “binds”.
Under B22 stands “binds”; under B23, “binds”; under B24, “binds”.
For B25, the binding result was “binds”.
Consider B26, for which the binding entry is “binds”.
In the case of B27, the binding entry is reported as “binds”.
As for B28, the binding entry is on record as “binds”.
Regarding B29, the binding entry is listed as “binds”.
Under B30 stands “binds”; under B31, “binds”.
Consider B32, for which the binding entry is “binds”.
On to B33, for which the binding result is given as “binds”.

For the origin of these results see patent US20260022160A1 (AFFYXELL THERAPEUTICS, published 2026).
